Results deposited as PubChem BioAssay AID1671195 (Yale University, 2021).
In all, the deposit lists about 22,000 reagents; shown is an unselected part. About 1,510 of them (6.9%) were called active. 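Active includes knockdowns raising or lowering LDL uptake; positive z-scores mean more uptake, negative mean less.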 The numbers tell different reagents against one gene apart. Reagent sequences are not shown.

- Screen: 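Regulators of LDL receptor activity judged by labelled LDL uptake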 (primary screen)
- System: human Huh7 hepatoma cells
- Reagent: siRNA pool against human genes, 18 nM
- Time to read-out: about 2 to 2.5 days of knockdown, then 8 h LDL uptake
- Treatment: DiI-labelled LDL at 30 µg/ml for 8 h, in lipoprotein-deficient serum medium
- Detection: 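Per-cell DiI-LDL intensity by automated imaging; well means scaled to the plate median and given as a robust z-score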
- Direction: robust z-score: higher = more LDL uptake after knockdown
- Hit rule: 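Active when two or more replicates show a robust z-score above 2 or below -2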

target gene | reagent no. | robust z-score, replicate 1 | robust z-score, replicate 2 | robust z-score, replicate 3 | activity call
RBMX2P5 | 1 | -0.205 | -0.838 | -0.69 | inactive
ZNF682 | 1 | -1.93 | -1.7 | -1.01 | inactive
RPL31P23 | 1 | -1.73 | -2.16 | -2.19 | active
PTPN7 | 1 | 2.2 | 1.63 | 1.73 | inactive
HYCC2 | 1 | -0.00823 | 0.0959 | 0.0356 | inactive
LOC202546 (retired record) | 1 | -0.316 | -0.682 | -0.828 | inactive
BSND | 1 | -0.605 | 0.008 | -0.509 | inactive
MOXD1 | 1 | -0.211 | 0.19 | -0.13 | inactive
POU4F1 | 1 | 0.569 | 0.894 | 1.27 | inactive
DDX20 | 1 | 0.465 | 1.31 | 1.36 | inactive
PAQR6 | 1 | -1.02 | -0.763 | -1.08 | inactive
RESP18 | 1 | 0.83 | 0.583 | 0.787 | inactive
VAV3 | 1 | 0.54 | 0.512 | 0.505 | inactive
ILDR2 | 1 | 0.761 | 1.1 | 0.927 | inactive
ZNF620 | 1 | -0.327 | -0.451 | -0.223 | inactive
NHLRC3 | 1 | -0.678 | -1.15 | -0.549 | inactive
AAGAB | 1 | -0.587 | -1.01 | -1.21 | inactive
ITIH3 | 1 | 0.351 | -0.252 | 0.105 | inactive
KIFBP | 1 | -1.41 | -1.3 | -1.01 | inactive
RPS2P32 | 1 | -0.136 | -0.164 | -0.22 | inactive
FRG2C | 1 | -0.653 | -0.675 | -0.512 | inactive
LOC152122 (retired record) | 1 | 0.0306 | -0.944 | 0.0303 | inactive
GIPC1 | 1 | 1.27 | 0.182 | 1.09 | inactive
KRT83 | 1 | 0.581 | -0.734 | 0.0514 | inactive
PDCD2L | 1 | -0.703 | -0.0639 | 0.147 | inactive
LOC392726 (retired record) | 1 | -0.502 | -0.433 | -0.828 | inactive
TRAM2-AS1 | 1 | -1.97 | -1.71 | -1.84 | inactive
NISCH | 1 | 0.00963 | 0.21 | 1.21 | inactive
BCAS3 | 1 | -0.944 | -1.22 | 0.366 | inactive
SPZ1 | 1 | 0.086 | 0.249 | 0.296 | inactive
LYPD3 | 1 | 0.551 | 1.83 | 0.633 | inactive
SGTB | 1 | -0.2 | -0.977 | 0.305 | inactive
CPS1 | 1 | 0.668 | 0.486 | 0.579 | inactive
LOC400792 (retired record) | 1 | -0.584 | -0.434 | -0.637 | inactive
ZNF256 | 1 | -0.523 | 0.427 | -0.609 | inactive
LINC01561 | 1 | 0.268 | 0.798 | 0.0681 | inactive
CREB3L2 | 1 | -0.393 | -0.359 | -0.519 | inactive
UCK1 | 1 | 1.15 | 0.616 | 0.235 | inactive
YIPF1 | 1 | -0.503 | -0.00636 | 0.32 | inactive
RHPN1 | 1 | -0.265 | 0.845 | 0.624 | inactive
MSRA | 1 | 0.112 | 0.873 | 0.487 | inactive
CAPN6 | 1 | -0.886 | -0.978 | -1.2 | inactive
CFAP99 | 1 | -0.151 | -0.353 | -0.336 | inactive
CFAP99 | 2 | -1.39 | -1.31 | -1.68 | inactive
RPL21 | 1 | -1.81 | -2.01 | -1.34 | inactive
KCNF1 | 1 | -0.157 | 0.485 | 0.141 | inactive
SNX1 | 1 | 1.16 | 0.54 | 0.387 | inactive
AHDC1 | 1 | -0.46 | -2.22 | -0.0767 | inactive
LRRC73 | 1 | 1.59 | 1.69 | 1.44 | inactive
ZC3H13 | 1 | 1.01 | 0.233 | 1.53 | inactive
NSL1 | 1 | -0.165 | 0.492 | 1.42 | inactive
BBC3 | 1 | -2.49 | -1.51 | -1.4 | inactive
JAG2 | 1 | -1.06 | -1.53 | -1.56 | inactive
DNAAF4 | 1 | -0.534 | -0.561 | -0.81 | inactive
RPSAP2 | 1 | -1.14 | -1.17 | -1.33 | inactive
HES1 | 1 | -1.69 | -1.55 | -1.07 | inactive
IFNA7 | 1 | -1.13 | -1.42 | -0.55 | inactive
BRS3 | 1 | 0.348 | -0.558 | -0.73 | inactive
LINC01443 | 1 | -0.201 | -0.351 | -0.225 | inactive
RPS27A | 1 | -0.897 | -0.398 | -1.09 | inactive
HNRNPA0 | 1 | -0.587 | -0.672 | -0.116 | inactive
CENPM | 1 | 0.0227 | -0.425 | -0.227 | inactive
LYPD5 | 1 | 0.201 | 0.806 | 1.08 | inactive
VIPAS39 | 1 | 0.916 | 0.591 | 0.307 | inactive
POMK | 1 | 2.45 | 2.11 | 1.78 | active
TYRO3 | 1 | 0.719 | -0.169 | 0.89 | inactive
PRDM7 | 1 | -0.5 | -1.1 | -0.395 | inactive
FADS1 | 1 | -0.731 | -1.28 | -0.111 | inactive
SH3BGR | 1 | -0.175 | -1.56 | -1.46 | inactive
LINC01139 | 1 | -0.159 | 0.144 | -0.141 | inactive
MAGEH1 | 1 | 0.32 | 0.451 | 0.74 | inactive
SLC14A2-AS1 | 1 | -0.513 | -0.972 | -0.893 | inactive
DIPK1A | 1 | 0.426 | 0.562 | 0.896 | inactive
BORCS5 | 1 | -0.117 | 0.0385 | 0.836 | inactive
SLC1A7 | 1 | -0.511 | 0.293 | 0.213 | inactive
LSM5 | 1 | -1.1 | 0.513 | -0.857 | inactive
LOC389325 (retired record) | 1 | -0.69 | -0.492 | -0.403 | inactive
PDP1 | 1 | -0.337 | -1.17 | -0.19 | inactive
LOC389089 (retired record) | 1 | -1.49 | -1.52 | -1.36 | inactive
PIK3C2B | 1 | 0.528 | 0.802 | 0.324 | inactive
PCDHB15 | 1 | -0.00803 | 0.209 | 0.279 | inactive
NLRP5 | 1 | -1.3 | -1.83 | -1.93 | inactive
NT5C3B | 1 | -1.18 | -1.55 | -1.63 | inactive
LOC389642 (retired record) | 1 | 0.845 | 1.07 | 0.951 | inactive
CFAP95 | 1 | -0.289 | -0.974 | 1.07 | inactive
C6 | 1 | 0.321 | -0.868 | 0.108 | inactive
HLA-DQA1 | 1 | -2.64 | -1.76 | -2.32 | active

Called active, of those listed so far:
target gene | reagent no. | robust z-score, replicate 1 | robust z-score, replicate 2 | robust z-score, replicate 3 | activity call
RPL31P23 | 1 | -1.73 | -2.16 | -2.19 | active
POMK | 1 | 2.45 | 2.11 | 1.78 | active
HLA-DQA1 | 1 | -2.64 | -1.76 | -2.32 | active
